These are yes or no findings as the source states them, for the method shown. Binding seen in cells or lysates may run through a third protein. Some binding calls cover weakened binding; strength is not graded here.

By UniProt entry, the sequences of proteins in these tests, tags left out.
UniProt P14635: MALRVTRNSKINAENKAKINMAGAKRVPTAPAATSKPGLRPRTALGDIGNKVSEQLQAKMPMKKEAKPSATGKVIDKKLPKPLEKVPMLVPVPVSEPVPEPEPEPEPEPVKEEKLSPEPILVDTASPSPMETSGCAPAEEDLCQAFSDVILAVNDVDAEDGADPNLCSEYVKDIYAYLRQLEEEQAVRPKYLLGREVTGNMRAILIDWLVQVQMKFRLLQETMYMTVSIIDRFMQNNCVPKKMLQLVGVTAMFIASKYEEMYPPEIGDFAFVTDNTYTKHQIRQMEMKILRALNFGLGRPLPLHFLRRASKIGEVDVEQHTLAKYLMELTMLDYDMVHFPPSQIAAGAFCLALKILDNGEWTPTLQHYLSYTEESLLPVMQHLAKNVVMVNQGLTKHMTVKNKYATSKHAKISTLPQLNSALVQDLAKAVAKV

The target of this assay is T1, Islet-1 (ISL1), endogenous in MGC803 cells (human (endogenous in MGC803)) (UniProt P61371).
T1 sequence: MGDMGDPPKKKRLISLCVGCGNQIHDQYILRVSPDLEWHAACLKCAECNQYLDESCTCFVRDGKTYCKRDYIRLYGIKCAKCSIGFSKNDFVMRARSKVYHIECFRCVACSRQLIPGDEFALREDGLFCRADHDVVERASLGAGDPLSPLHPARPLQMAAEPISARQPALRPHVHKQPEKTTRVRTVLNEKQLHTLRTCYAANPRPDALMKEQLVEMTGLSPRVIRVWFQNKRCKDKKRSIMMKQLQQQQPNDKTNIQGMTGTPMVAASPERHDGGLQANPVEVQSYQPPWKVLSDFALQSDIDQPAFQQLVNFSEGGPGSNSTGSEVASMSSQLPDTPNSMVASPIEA
Nature of the assay: co-IP; endogenous proteins; MGC803 lysate (RIPA lysis buffer with protease inhibitors) immunoprecipitated with antibodies against ISL1, CDK1 or cyclinB1, immunoblotting; IgG as control. In general terms: A western blot detects proteins with antibodies after separation by electrophoresis.

On to “cyclin B1, endogenous in MGC803 cells (from UniProt P14635 1-433)”, for which the binding entry is on record as “binds”.

These data come from paper PMC8106192.
